Test results as given in US20250281513A1, “USE OF PS[…] TREAT […]” (priority 2021, published 2025).
Read-outs that look alike come from different tables or passages of the source. For at least one compound, name, drawing or mass did not settle the structure.

Test system: ABCF1
Assay type: cell-based, murine
Settings: RAW264.7, 10 nM, 100 nM, 500 nM, 2 hours post treatment, normalized to GAPDH (FIG. 2)
Procedure: • 1. Macrophage cell line RAW264.7 (ATCC) were grown to 80% confluency in growth media (DMEM+10% FBS+glutamine). • 2. Dilutions of the drugs were made at desired final concentrations for a Dose response experiment. The concentrations' used for this experiment are: 10 nM, 100 nM, 500 nM for Psilocin, Psylocibin, 4-Acetoxy-N, N-dimthyltryptamine, O-Acetyl Psilocin Fumerate, and 4-acetoxyindole. • 3. Untreated cells were used as negative control and Escitalopram at 0.3 mM was used as a positive control to activate ABCF1 expression for all the experiments. Analysis by qPCR:
• 1. 2 hours post treatment with drugs, the reaction was stopped by removing the media with the drug. Cells were then collected and RNA was isolated from these. • 2. After checking the quality of the RNA, cDNA was generated and qPCR was run with ABCF1 primers as the target gene and GAPDH as the house keeping gene. • 3. Normalized against the expression level of GAPDH, the fold change expression level of ABCF1 was calculated and tabulated for all treatment conditions.

## CN(C)CCc1c[nH]c2cccc(OP(=O)(O)O)c12 [psilocybin, [3-(2-Dimethylaminoethyl)-1H-indol-4-yl]dihydrogen phosphate]
  ABCF1 transcription / expression: enhance expression of ABCF1
Listed as psylocibin
  ABCF1 transcription / expression: upregulate ABCF1 transcription
